{"source": "patent US20190314394A1", "about": "(priority 2013, published 2019)", "assay": "peptide made by a vendor", "conditions": "whole synthesis", "note": "[ ]: non-standard residue; d: D form. Cha = N[C@@H](CC1CCCCC1)C(=O)O; Ahx = NCCCCCC(=O)O", "data": [{"substance": "Ac-[dA]K[Cha]VAAWTLKAAA[dA][Ahx]C-OH", "values": [{"measurement": "purity (crude or final not stated)", "result": "minimum purity of 95%"}]}]}
